We go through 1 molecule from patent publication US20260055150A1, “GRAIL-1 PEPTIDE PRODUCTS AND METHODS” (REGENTS OF THE UNIVERSITY OF MICHIGAN, priority 2022, published 2026).

The target in this assay is recombinant purified DNAJA1 (purified HSP40 protein) (UniProt P31689). Kind of assay: peptide pull-down, TAT-less peptide on NHS-activated Sepharose beads, anti-His Western blot. A general note: A western blot detects proteins with antibodies after separation by electrophoresis.

These are yes or no findings as the source states them, for the method shown. Binding seen in cells or lysates may run through a third protein. Some binding calls cover weakened binding; strength is not graded here.

For the molecule CKVPPWR [Pep 28 (TAT-less Pep 9, CKVPPWR)], the binding result is reported as “binds”.
